Laboratory results from the supplement of paper PMC8612539.
Values after ≈ are worked out from the molar mass of the structure shown. The source gives many values for each of these; only a part stands here.

Test system: Escherichia coli
Experiment: minimum inhibitory concentration (MIC)
Description: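 Broth microdilution MIC (Sensititre BOPO7F bovine plate, CLSI methods) of 19 antimicrobials against field isolates of P. multocida, M. haemolytica, H. somni (deep nasopharyngeal swabs) and E. coli, Enterococcus spp. (rectal swabs) from weaned dairy heifers. Incubation 16-24 h at 35 C. MIC is the lowest concentration preventing visible growth. Values with <= or > lie at the tested range limits. Trimethoprim-sulfamethoxazole is given as the trimethoprim component of a 1:19 mixture.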

CC1(C)S[C@@H]2[C@H](NC(=O)Cc3ccccc3)C(=O)N2[C@H]1C(=O)O [Penicillin]
Settings | minimum inhibitory concentration [µg/mL]
isolate (source animal id): 1 | > 8
isolate (source animal id): 2 | > 8
isolate (source animal id): 3 | > 8
isolate (source animal id): 4 | > 8
isolate (source animal id): 5 | > 8
isolate (source animal id): 6 | > 8
isolate (source animal id): 7 | > 8
isolate (source animal id): 17 | > 8
isolate (source animal id): 18 | > 8
isolate (source animal id): 19 | > 8
isolate (source animal id): 20 | > 8
isolate (source animal id): 21 | > 8
isolate (source animal id): 22 | > 8
isolate (source animal id): 23 | > 8
isolate (source animal id): 24 | > 8
isolate (source animal id): 25 | > 8
isolate (source animal id): 26 | > 8
isolate (source animal id): 27 | > 8
isolate (source animal id): 28 | > 8
isolate (source animal id): 29 | > 8
isolate (source animal id): 30 | > 8
isolate (source animal id): 31 | > 8
isolate (source animal id): 32 | > 8
isolate (source animal id): 33 | > 8
isolate (source animal id): 34 | > 8
isolate (source animal id): 35 | > 8
isolate (source animal id): 36 | > 8
isolate (source animal id): 37 | > 8
isolate (source animal id): 38 | > 8
isolate (source animal id): 39 | > 8
isolate (source animal id): 40 | > 8
isolate (source animal id): 41 | > 8
isolate (source animal id): 42 | > 8
isolate (source animal id): 43 | > 8
isolate (source animal id): 44 | > 8
isolate (source animal id): 45 | > 8
isolate (source animal id): 46 | > 8
isolate (source animal id): 47 | > 8
isolate (source animal id): 48 | > 8
isolate (source animal id): 49 | > 8
isolate (source animal id): 50 | > 8
isolate (source animal id): 51 | > 8
isolate (source animal id): 52 | > 8
isolate (source animal id): 53 | > 8
isolate (source animal id): 54 | > 8
isolate (source animal id): 55 | > 8
isolate (source animal id): 56 | > 8
isolate (source animal id): 57 | > 8
isolate (source animal id): 58 | > 8
isolate (source animal id): 59 | > 8
isolate (source animal id): 60 | > 8
isolate (source animal id): 61 | 8 (≈ 23.9 µM)
isolate (source animal id): 62 | > 8
isolate (source animal id): 63 | > 8
isolate (source animal id): 64 | > 8
isolate (source animal id): 65 | > 8
isolate (source animal id): 66 | > 8
isolate (source animal id): 67 | > 8
isolate (source animal id): 68 | > 8
isolate (source animal id): 69 | > 8
isolate (source animal id): 70 | > 8
isolate (source animal id): 71 | > 8
isolate (source animal id): 72 | > 8
isolate (source animal id): 73 | > 8
isolate (source animal id): 74 | > 8
isolate (source animal id): 75 | > 8
isolate (source animal id): 76 | > 8
isolate (source animal id): 77 | > 8
isolate (source animal id): 78 | > 8
isolate (source animal id): 79 | > 8
isolate (source animal id): 80 | > 8
isolate (source animal id): 81 | > 8
isolate (source animal id): 82 | > 8
isolate (source animal id): 83 | > 8
isolate (source animal id): 84 | > 8
isolate (source animal id): 85 | > 8
isolate (source animal id): 86 | > 8
isolate (source animal id): 87 | > 8
isolate (source animal id): 88 | > 8
isolate (source animal id): 89 | > 8
isolate (source animal id): 90 | > 8
isolate (source animal id): 91 | > 8
isolate (source animal id): 92 | > 8
isolate (source animal id): 93 | > 8
isolate (source animal id): 94 | > 8
isolate (source animal id): 95 | > 8
isolate (source animal id): 96 | > 8
isolate (source animal id): 97 | > 8
isolate (source animal id): 189 | > 8
isolate (source animal id): 190 | > 8
isolate (source animal id): 191 | > 8
isolate (source animal id): 192 | > 8
isolate (source animal id): 193 | > 8
isolate (source animal id): 194 | > 8
isolate (source animal id): 195 | > 8
isolate (source animal id): 196 | 8 (≈ 23.9 µM)
isolate (source animal id): 197 | > 8
isolate (source animal id): 198 | > 8
isolate (source animal id): 199 | > 8
isolate (source animal id): 200 | > 8
isolate (source animal id): 201 | > 8
isolate (source animal id): 202 | > 8
isolate (source animal id): 203 | > 8
isolate (source animal id): 204 | > 8
isolate (source animal id): 205 | > 8
isolate (source animal id): 206 | > 8
isolate (source animal id): 207 | > 8
isolate (source animal id): 208 | > 8
isolate (source animal id): 209 | > 8
isolate (source animal id): 210 | > 8
isolate (source animal id): 211 | > 8
isolate (source animal id): 212 | > 8
isolate (source animal id): 213 | > 8
isolate (source animal id): 214 | > 8
isolate (source animal id): 215 | > 8
isolate (source animal id): 216 | > 8
isolate (source animal id): 217 | > 8
isolate (source animal id): 218 | > 8
isolate (source animal id): 219 | > 8
isolate (source animal id): 220 | > 8
isolate (source animal id): 221 | > 8
isolate (source animal id): 222 | > 8
isolate (source animal id): 223 | > 8
isolate (source animal id): 224 | > 8
isolate (source animal id): 225 | > 8
isolate (source animal id): 226 | > 8
isolate (source animal id): 227 | > 8
isolate (source animal id): 228 | > 8
isolate (source animal id): 229 | > 8
isolate (source animal id): 230 | > 8
isolate (source animal id): 231 | > 8
isolate (source animal id): 232 | > 8
isolate (source animal id): 233 | > 8
isolate (source animal id): 234 | > 8
isolate (source animal id): 235 | > 8
isolate (source animal id): 236 | > 8
isolate (source animal id): 237 | > 8
isolate (source animal id): 238 | > 8
isolate (source animal id): 239 | > 8
isolate (source animal id): 240 | > 8
isolate (source animal id): 241 | > 8
isolate (source animal id): 242 | > 8
isolate (source animal id): 243 | > 8
isolate (source animal id): 244 | > 8
isolate (source animal id): 245 | > 8
isolate (source animal id): 246 | > 8
isolate (source animal id): 247 | > 8
isolate (source animal id): 248 | > 8
isolate (source animal id): 249 | > 8
isolate (source animal id): 250 | > 8
isolate (source animal id): 251 | > 8
isolate (source animal id): 252 | > 8
isolate (source animal id): 253 | > 8
isolate (source animal id): 254 | > 8
isolate (source animal id): 255 | > 8
isolate (source animal id): 256 | > 8
isolate (source animal id): 257 | > 8
isolate (source animal id): 258 | > 8
isolate (source animal id): 259 | > 8
isolate (source animal id): 260 | > 8
isolate (source animal id): 261 | > 8
isolate (source animal id): 262 | > 8
isolate (source animal id): 263 | > 8
isolate (source animal id): 264 | > 8
isolate (source animal id): 265 | > 8
isolate (source animal id): 266 | > 8
isolate (source animal id): 267 | > 8
isolate (source animal id): 268 | > 8
isolate (source animal id): 269 | > 8
isolate (source animal id): 270 | > 8
isolate (source animal id): 271 | > 8
isolate (source animal id): 272 | > 8
isolate (source animal id): 273 | > 8
isolate (source animal id): 274 | > 8
isolate (source animal id): 275 | > 8
isolate (source animal id): 276 | > 8
isolate (source animal id): 277 | > 8
isolate (source animal id): 278 | > 8
isolate (source animal id): 279 | > 8
isolate (source animal id): 280 | > 8
isolate (source animal id): 281 | > 8
isolate (source animal id): 282 | > 8
isolate (source animal id): 283 | > 8
isolate (source animal id): 284 | > 8
isolate (source animal id): 285 | > 8
isolate (source animal id): 286 | > 8
isolate (source animal id): 287 | > 8
isolate (source animal id): 288 | > 8
isolate (source animal id): 289 | > 8
isolate (source animal id): 290 | > 8
isolate (source animal id): 291 | > 8
isolate (source animal id): 292 | > 8
isolate (source animal id): 293 | > 8
isolate (source animal id): 294 | > 8
isolate (source animal id): 295 | > 8
isolate (source animal id): 296 | > 8
isolate (source animal id): 297 | > 8
isolate (source animal id): 298 | > 8
isolate (source animal id): 299 | > 8
isolate (source animal id): 300 | > 8
isolate (source animal id): 301 | > 8
isolate (source animal id): 302 | > 8
isolate (source animal id): 303 | > 8
isolate (source animal id): 304 | > 8
isolate (source animal id): 305 | > 8
isolate (source animal id): 306 | > 8
isolate (source animal id): 307 | > 8
isolate (source animal id): 308 | > 8
isolate (source animal id): 309 | > 8
isolate (source animal id): 310 | > 8
isolate (source animal id): 311 | > 8
isolate (source animal id): 312 | > 8
isolate (source animal id): 313 | > 8
isolate (source animal id): 314 | > 8
isolate (source animal id): 315 | > 8
isolate (source animal id): 316 | > 8
isolate (source animal id): 317 | > 8
isolate (source animal id): 318 | > 8
isolate (source animal id): 319 | > 8
isolate (source animal id): 320 | > 8
isolate (source animal id): 321 | > 8
isolate (source animal id): 322 | > 8
isolate (source animal id): 323 | > 8
isolate (source animal id): 324 | > 8
isolate (source animal id): 325 | > 8
isolate (source animal id): 326 | > 8
isolate (source animal id): 327 | > 8
isolate (source animal id): 328 | > 8
isolate (source animal id): 329 | > 8
isolate (source animal id): 330 | > 8
isolate (source animal id): 331 | > 8
isolate (source animal id): 332 | > 8
isolate (source animal id): 333 | > 8
isolate (source animal id): 334 | > 8
isolate (source animal id): 335 | > 8
isolate (source animal id): 336 | > 8
isolate (source animal id): 337 | > 8
isolate (source animal id): 338 | > 8
isolate (source animal id): 339 | > 8
isolate (source animal id): 340 | > 8
isolate (source animal id): 341 | 8 (≈ 23.9 µM)
